Data reported in the supplement of paper PMC8426693.
This is one part of the list. Single values are uncertain, as repeats are few or missing.

What follows are compounds tested on SARS-CoV-2 3_SL1+2 RNA (assay: waterLOGSY factor (bound vs free ligand) (ratio); higher = stronger binding). Settings: RNA concentration 10 µM; fragment concentration 200 µM; 293 K.

Structure (SMILES) | waterLOGSY factor
c1coc(CNc2nc3ccccc3[nH]2)c1 | 1.25
CNCc1ccc(C(F)(F)F)cc1 | 0.74
NC(=O)c1ccnc(NC2CC=CC2)c1 | 1.22

These compounds were tested on SARS-CoV-2 3_SL3base RNA in the same assay as above. Settings: RNA concentration 10 µM; fragment concentration 200 µM; 293 K.

Structure (SMILES) | waterLOGSY factor
c1coc(CNc2nc3ccccc3[nH]2)c1 | 1.81
CNCc1ccc(C(F)(F)F)cc1 | 0.97
Oc1ccc(CN2CCCC2)c2cccnc12 | 1.3
O=C(Nc1ccc(O)cc1)c1ccc(Cl)cc1 | 1.82
O=C(Nc1ccc2[nH]c(=O)[nH]c2c1)c1ccco1 | 1.87
CNCC(=O)Nc1cc(C)ccn1 | 1.28
Cc1cc(C(=O)Nc2ccc3[nH]ccc3c2)no1 | 1.11

What follows are compounds tested on SARS-CoV-2 5'-UTR RNA in the same assay as above. Settings: RNA concentration 10 µM; fragment concentration 200 µM; 293 K.

Structure (SMILES) | waterLOGSY factor
c1nc(N2CCC2)c2[nH]cnc2n1 | 1.11
O=C(OCc1ccc(Cl)cc1)c1cccnc1 | 0.797
c1coc(CNc2nc3ccccc3[nH]2)c1 | 3.78
Cc1ccccc1OCC(=O)Nc1ncccn1 | 1.59
Cc1cc(N2CCNCC2)nc(C)n1 | 1.71
COc1ccc(NC(=O)CN)cc1 | 1.42
CC(N)c1ccc(-c2cncnc2)cc1 (stereo unspecified) | 3.11
Oc1ccc(CN2CCCC2)c2cccnc12 | 1.15
O=C(Nc1ccc(O)cc1)c1ccc(Cl)cc1 | 3.94
Cc1c(Cl)cccc1NC(=O)CN.Cl | 2.31
OCc1ccc(-n2cnc3ccccc32)cc1 | 1.52
CCNCc1cccc2[nH]ccc12 | 1.83
O=C(Nc1ccc2[nH]c(=O)[nH]c2c1)c1ccco1 | 3.02
c1ccc(CCNc2nc3ccccc3[nH]2)cc1 | 2.77
CNCC(=O)Nc1cc(C)ccn1 | 2.77
CNC(=O)c1nc2ccccc2c(=O)[nH]1 | 1.66
